Laboratory results as given in US9090652B2, “Bile acid derivatives as FXR ligands for the prevention or treatment of FXR-mediated diseases or conditions” (Intercept Pharmaceuticals, Inc., priority 2006, dated 2015).
Some results were stated once for a whole list of compounds, not compound by compound.

System: Intestinal bacteria (human stools cultures)
Experiment: Metabolic stability in human stools culture (7α-dehydroxylation)
Settings: human stool cultures, after 24 hour, 0.05 mM

CC[C@H]1[C@@H](O)[C@@H]2[C@H](CC[C@]3(C)[C@@H]([C@H](C)CCC(=O)O)CC[C@@H]23)[C@@]2(C)CC[C@@H](O)C[C@@H]12 [INT-747, 3α,7α-dihydroxy-6α-ethyl-5β-cholan-24-oic acid]
Compound recovered unmodified: more than 85%
